# Assay results from PMC5837993.
# No constants are given. Whether binding was seen depends on the method and setting. In cells and extracts the contact can be indirect. Binding calls can cover weak binding; strength is not graded here. Sequences can lack the tags named with a protein.
# Target: T1, Flag-B4GALT5 (porcine β-1,4 galactosyltransferase V) (porcine)
# T1 sequence: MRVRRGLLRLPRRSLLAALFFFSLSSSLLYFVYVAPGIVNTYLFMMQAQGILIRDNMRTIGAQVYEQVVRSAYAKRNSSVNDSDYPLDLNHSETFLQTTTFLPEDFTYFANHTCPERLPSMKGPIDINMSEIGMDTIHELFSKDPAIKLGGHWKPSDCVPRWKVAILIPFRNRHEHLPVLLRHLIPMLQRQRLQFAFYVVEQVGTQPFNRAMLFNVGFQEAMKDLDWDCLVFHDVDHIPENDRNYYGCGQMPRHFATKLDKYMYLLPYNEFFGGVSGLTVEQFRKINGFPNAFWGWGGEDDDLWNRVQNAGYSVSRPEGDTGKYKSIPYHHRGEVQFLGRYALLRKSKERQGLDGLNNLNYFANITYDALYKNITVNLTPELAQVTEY
# Assay: co-IP; 3D4/21 cells co-transfected with GP5-Myc and Flag-B4GALT5; lysate precipitated with mouse anti-Flag mAb Sepharose beads (legend: anti-Flag mAb with protein A Sepharose), Western blot with anti-Myc antibody
substance,measurement,value
GP5-Myc (glycoprotein 5 of PRRSV JXwn06),binding,binds
